{"source": "PubChem BioAssay AID504444", "about": "(National Center for Advancing Translational Sciences (NCATS), 2011)", "note": "The whole screen tested about 360,000 compounds, of which about 7,500 (2.1%) were called active. The shares of active, inactive and inconclusive entries below differ from those in the screen. Calls follow the shape of the dose curve; as a rule, active = well fitted inhibition curve with a large enough effect; inconclusive = small, poorly fitted or top-dose-only effect, or effect the other way; inactive = flat fitted curve, though single readings scatter. Potencies of inconclusive entries are doubtful fits and often do not repeat. % is scaled to controls: 0 for no effect and ±100 for the full control effect; potency is read from the fitted curve at half-maximal effect.", "data": [{"test": "Nrf2 qHTS screen for inhibitors; also: nearly all actives have a fitted effect of over 60% in size", "settings": "A549 ARE-Fluc reporter, luciferase luminescence, 18-24 h; activity change, negative = inhibition: at 46 µM (top of the series)", "procedure,_shortened": "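In this cell-based qHTS, ARE-driven firefly luciferase in A549 cells reports Nrf2 activity; the luminescent signal after BugLite lysis is the measured value, with a prior CellTiter-Fluor read for cell health.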", "values": [{"smiles": "COc1cccc(-c2nc(CS(=O)(=O)CC(=O)N3CCOCC3)c(C)o2)c1", "activity change, negative = inhibition": "inactive: -19.3%"}, {"smiles": "COc1ccc(C2CC(=O)c3c(O)cc(O)cc3O2)c(CC=C(C)C)c1OC", "note": "(stereo not drawn)", "Potency": "inconclusive: 6.51 µM [activator, single point]"}, {"smiles": "Fc1ccc(-c2ccnc3nc(-n4cccc4)nn23)cc1", "Potency": "inconclusive: 0.0206 µM [falling, full curve, poor fit]"}, {"smiles": "COc1cc(C2C(C#N)=C(N)Oc3c2ccc2ccccc32)ccc1OCC(=O)Nc1cccc(C)c1", "note": "(stereo not drawn)", "Potency": "inconclusive: 25.9 µM [falling, single point]"}, {"smiles": "FC(F)Sc1ccc(NC(=S)NC(c2ccccc2)c2ccccc2)cc1", "Potency": "inconclusive: 29.1 µM [falling, single point]"}, {"smiles": "CCc1nnc(NC(=O)C=C(C)C)s1", "Potency": "inconclusive: 2.91 µM [activator, full curve]"}, {"smiles": "COC(=O)c1c[nH]n2c(=O)c(C(C)C)c(C)nc12", "activity change, negative = inhibition": "inactive: 5.62%"}, {"smiles": "COc1cccc(-c2noc(CCC(=O)NCCc3ccccc3)n2)c1", "Potency": "inconclusive: 32.6 µM [falling, single point]"}, {"smiles": "CCSc1nc2ccc(N3C(=O)C4C5C=CC(C5)C4C3=O)cc2s1", "note": "(stereo not drawn)", "Potency": "inconclusive: 18.4 µM [activator, partial curve, poor fit]"}, {"smiles": "CC(C)CC(=O)NC(=S)Nc1cc(C(F)(F)F)ccc1N1CCOCC1", "Potency": "inconclusive: 2.59 µM [falling, partial curve]"}, {"smiles": "CC(C)c1ccc(NS(=O)(=O)c2cc(Br)cc3c2N(C(=O)C2CC2)CC3)cc1", "Potency": "inconclusive: 5.17 µM [falling, single point]"}, {"smiles": "CSc1ccccc1NC(=O)CN(Cc1ccccc1)S(C)(=O)=O", "activity change, negative = inhibition": "inactive: -19.2%"}, {"smiles": "Cc1ccc([C@@H]2CC=C(C(=O)O)[C@H](c3ccc(Br)cc3)N2S(=O)(=O)c2ccc(C)cc2)cc1", "Potency": "inconclusive: 29.1 µM [falling, single point]"}, {"smiles": "COc1ccccc1Nc1nc(N)nc(CN(C)C2CCCCC2)n1", "Potency": "inconclusive: 32.6 µM [activator, partial curve, poor fit]"}, {"smiles": "CC1CCCC(NC(=O)CCS(=O)(=O)c2ccc3c(c2)NC(=O)CS3)C1C", "note": "(stereo not drawn)", "Potency": "inconclusive: 32.6 µM [falling, single point]"}, {"smiles": "Cc1ccc(C2C3CSCC=C3C(C#N)=C(N)C2(C#N)C#N)cc1", "note": "(stereo not drawn)", "Potency": "active: 14.6 µM"}, {"smiles": "COc1ccc(-c2c(C)nn3c(N4CCCCCC4)cc(C)nc23)cc1OC", "Potency": "inconclusive: 16.4 µM [falling, single point]"}, {"smiles": "COc1ccc(CCNC(=O)c2ccc3c(c2)N(Cc2ccccc2)CCS3)cc1OC", "Potency": "inconclusive: 25.9 µM [falling, partial curve, poor fit]"}]}]}
